Earlier results, collected in patent US20020045179A1, “Toxicity typing using mesenchymal stem cells” (priority 2000, published 2002).

Conditions: Table 1, predetermined toxicity by tissue/organ

Q: Which “TOXICITIES LIVER” value does the source give for O=C(O)c1cn(C2CC2)c2cc(N3CCNCC3)c(F)cc2c1=O [ciprofloxacin] here?
A: ntc
